# Earlier results in US11986459B2, “Methods for the treatment of Mycobacterium infections” (University of South Florida, priority 2020, dated 2024).
# Sequences of proteins named here, by UniProt entry; tags and fusion partners are left off. Residues count along the entry.
# UniProt P22303, 32-614: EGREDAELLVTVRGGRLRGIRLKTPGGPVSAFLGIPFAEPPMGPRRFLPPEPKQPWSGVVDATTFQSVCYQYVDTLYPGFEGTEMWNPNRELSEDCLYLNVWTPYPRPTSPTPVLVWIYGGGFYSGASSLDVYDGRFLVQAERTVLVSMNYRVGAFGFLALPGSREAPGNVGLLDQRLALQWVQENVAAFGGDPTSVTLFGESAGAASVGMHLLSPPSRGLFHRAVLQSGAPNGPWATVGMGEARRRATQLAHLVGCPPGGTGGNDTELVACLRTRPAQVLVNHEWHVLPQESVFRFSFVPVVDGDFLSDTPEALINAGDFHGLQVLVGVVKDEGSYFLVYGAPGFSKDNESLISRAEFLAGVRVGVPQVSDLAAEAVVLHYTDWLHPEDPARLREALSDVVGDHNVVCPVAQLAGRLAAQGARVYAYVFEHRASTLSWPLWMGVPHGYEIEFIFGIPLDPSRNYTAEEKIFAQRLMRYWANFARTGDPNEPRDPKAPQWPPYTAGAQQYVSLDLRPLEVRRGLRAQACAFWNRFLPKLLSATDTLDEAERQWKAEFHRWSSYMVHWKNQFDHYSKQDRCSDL
# For at least one compound, name, drawing or mass did not settle the structure.
# Target: acetylcholinesterase (AchE) (Homo sapiens, UniProt P22303)
# Details: literature ref 13; cited from earlier work
row,SMILES,IC50 against acetylcholinesterase (AchE) [nM]
1,COc1cc(-c2cc3c(c(=O)o2)C[C@]2(O)[C@@]4(C)C(=O)C=CC(C)(C)[C@]4(O)CC[C@@]2(C)O3)cc(OC)c1O [territrem C],230
2,"COc1ccc(-c2cc3c(c(=O)o2)C[C@]2(O)[C@@]4(C)C(=O)C=CC(C)(C)[C@]4(O)CC[C@@]2(C)O3)cc1 [Arisugacin B, arisugacin B]",3030
